Measurements from paper doi:10.1101/2023.01.24.524588.
Results are given in words; binding and its absence hold for the method and conditions named. In cells and extracts the contact can be indirect. Binding can be weak; no strength is given.

Target: ClSca (Cellulosilyticum lentocellum DSM 5427)
Assay: pull-down

B1: Clole_2778 (protein, UniProt F2JK62 1-107)
chain: MIDYKKLTDDLVKAREAAEKAVTGEDGGTANLDSLTLKLKGYREVKVIEAVKAAGLYTRGKREWIGTRYFIGPPVGAQGNDRVRQVEAMYKVMEDLGYDVLMFCQMD
B1 was tested. Which binding did it give?
The binding was “binds”.
